The supplement of paper PMC10849652
Some of the results follow.

Sequences of proteins named here, by UniProt entry; tags and fusion partners are left off. A change or cut given only in a name is not applied to a line headed by its entry.
UniProt P13987: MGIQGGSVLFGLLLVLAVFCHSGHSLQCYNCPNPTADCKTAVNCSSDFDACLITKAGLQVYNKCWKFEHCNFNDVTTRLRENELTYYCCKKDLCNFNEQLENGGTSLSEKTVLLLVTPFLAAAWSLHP
UniProt Q13951, whole entry, looked up: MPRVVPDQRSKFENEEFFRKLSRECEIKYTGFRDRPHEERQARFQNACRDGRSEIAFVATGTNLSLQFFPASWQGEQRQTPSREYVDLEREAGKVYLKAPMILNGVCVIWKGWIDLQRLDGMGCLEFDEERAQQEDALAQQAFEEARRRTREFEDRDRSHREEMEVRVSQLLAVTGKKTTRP
UniProt O95067, whole entry, looked up: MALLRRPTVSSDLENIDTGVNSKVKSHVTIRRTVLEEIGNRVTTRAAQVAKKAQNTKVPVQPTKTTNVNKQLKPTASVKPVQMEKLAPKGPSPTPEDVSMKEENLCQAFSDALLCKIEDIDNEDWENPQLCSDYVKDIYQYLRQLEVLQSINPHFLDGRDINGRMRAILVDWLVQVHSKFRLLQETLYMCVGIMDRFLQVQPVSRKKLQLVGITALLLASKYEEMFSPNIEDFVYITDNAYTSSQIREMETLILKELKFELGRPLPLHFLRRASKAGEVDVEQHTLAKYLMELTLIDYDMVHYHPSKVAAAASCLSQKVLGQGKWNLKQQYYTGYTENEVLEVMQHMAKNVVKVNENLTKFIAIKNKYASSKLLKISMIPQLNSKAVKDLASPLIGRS
UniProt Q96S94: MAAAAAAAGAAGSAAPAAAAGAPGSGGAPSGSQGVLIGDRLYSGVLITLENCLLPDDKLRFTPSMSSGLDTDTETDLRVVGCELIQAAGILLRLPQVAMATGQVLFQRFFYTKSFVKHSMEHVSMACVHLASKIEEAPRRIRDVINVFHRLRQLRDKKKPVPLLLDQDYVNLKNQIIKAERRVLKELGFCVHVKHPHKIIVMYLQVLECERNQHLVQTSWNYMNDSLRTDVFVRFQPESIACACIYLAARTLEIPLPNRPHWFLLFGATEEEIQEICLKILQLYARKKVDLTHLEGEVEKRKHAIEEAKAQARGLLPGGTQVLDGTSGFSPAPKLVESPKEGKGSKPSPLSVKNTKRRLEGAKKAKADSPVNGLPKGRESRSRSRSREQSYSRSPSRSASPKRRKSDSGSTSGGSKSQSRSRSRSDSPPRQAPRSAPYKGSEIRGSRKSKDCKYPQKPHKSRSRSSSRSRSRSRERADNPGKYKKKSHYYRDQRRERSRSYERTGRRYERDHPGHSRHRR
UniProt P60033: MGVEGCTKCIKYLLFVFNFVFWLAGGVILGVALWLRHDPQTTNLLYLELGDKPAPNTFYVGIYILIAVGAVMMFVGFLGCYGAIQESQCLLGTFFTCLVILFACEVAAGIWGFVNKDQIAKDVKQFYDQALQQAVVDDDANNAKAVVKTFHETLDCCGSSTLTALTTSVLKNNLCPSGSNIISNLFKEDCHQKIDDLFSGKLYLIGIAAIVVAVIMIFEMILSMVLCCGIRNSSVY
UniProt Q9BSQ5: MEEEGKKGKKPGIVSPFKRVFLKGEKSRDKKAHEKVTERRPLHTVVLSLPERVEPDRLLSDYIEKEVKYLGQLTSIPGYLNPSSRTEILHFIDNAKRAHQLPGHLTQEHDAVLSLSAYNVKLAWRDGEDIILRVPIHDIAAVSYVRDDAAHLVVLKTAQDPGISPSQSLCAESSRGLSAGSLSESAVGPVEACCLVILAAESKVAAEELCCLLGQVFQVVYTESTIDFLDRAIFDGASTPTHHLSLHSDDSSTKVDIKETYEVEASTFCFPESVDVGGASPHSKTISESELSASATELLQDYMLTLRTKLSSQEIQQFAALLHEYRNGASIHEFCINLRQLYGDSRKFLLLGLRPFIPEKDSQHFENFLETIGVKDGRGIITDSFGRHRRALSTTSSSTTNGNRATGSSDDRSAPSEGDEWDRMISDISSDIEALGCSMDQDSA
UniProt P50991: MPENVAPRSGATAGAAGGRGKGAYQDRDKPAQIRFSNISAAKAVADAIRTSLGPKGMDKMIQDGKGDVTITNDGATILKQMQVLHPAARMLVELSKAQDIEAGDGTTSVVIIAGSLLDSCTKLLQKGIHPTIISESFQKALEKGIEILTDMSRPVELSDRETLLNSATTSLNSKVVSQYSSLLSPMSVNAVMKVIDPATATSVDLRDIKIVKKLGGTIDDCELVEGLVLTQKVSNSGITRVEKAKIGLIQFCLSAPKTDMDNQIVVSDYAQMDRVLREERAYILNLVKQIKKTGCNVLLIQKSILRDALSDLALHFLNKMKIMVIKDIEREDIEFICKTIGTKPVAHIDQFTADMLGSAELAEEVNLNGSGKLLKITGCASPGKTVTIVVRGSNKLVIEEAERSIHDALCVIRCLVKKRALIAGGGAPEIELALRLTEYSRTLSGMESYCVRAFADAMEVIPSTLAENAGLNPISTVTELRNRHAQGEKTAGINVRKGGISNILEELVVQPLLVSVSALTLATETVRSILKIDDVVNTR
UniProt Q16204: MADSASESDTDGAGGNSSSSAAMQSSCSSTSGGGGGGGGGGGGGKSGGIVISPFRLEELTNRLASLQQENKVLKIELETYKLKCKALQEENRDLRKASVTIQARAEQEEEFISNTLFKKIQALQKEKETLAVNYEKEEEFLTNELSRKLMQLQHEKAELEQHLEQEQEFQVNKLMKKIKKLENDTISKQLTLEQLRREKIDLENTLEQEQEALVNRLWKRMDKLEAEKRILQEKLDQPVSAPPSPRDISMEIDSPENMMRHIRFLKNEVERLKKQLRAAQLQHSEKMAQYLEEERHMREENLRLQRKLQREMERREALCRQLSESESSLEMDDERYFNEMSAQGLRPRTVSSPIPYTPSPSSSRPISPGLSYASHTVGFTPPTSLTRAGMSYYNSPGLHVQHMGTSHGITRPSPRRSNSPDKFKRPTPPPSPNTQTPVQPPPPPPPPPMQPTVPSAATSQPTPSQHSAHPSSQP
UniProt Q6PII3: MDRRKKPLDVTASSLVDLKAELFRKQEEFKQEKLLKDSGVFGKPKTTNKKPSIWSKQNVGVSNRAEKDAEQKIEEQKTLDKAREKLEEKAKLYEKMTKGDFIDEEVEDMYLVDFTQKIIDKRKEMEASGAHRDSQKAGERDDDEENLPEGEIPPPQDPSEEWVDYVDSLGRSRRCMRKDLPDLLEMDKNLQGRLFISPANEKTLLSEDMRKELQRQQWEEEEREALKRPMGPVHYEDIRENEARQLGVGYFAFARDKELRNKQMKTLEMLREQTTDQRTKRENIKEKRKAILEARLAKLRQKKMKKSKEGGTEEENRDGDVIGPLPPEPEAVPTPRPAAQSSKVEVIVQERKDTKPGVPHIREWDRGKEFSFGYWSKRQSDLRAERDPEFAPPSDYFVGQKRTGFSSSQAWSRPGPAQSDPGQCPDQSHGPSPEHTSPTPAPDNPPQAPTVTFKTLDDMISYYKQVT
UniProt Q4G0I0: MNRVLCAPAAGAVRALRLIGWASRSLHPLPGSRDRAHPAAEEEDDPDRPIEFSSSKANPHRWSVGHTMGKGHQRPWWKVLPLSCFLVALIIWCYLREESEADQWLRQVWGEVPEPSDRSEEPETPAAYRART
UniProt Q8ND76: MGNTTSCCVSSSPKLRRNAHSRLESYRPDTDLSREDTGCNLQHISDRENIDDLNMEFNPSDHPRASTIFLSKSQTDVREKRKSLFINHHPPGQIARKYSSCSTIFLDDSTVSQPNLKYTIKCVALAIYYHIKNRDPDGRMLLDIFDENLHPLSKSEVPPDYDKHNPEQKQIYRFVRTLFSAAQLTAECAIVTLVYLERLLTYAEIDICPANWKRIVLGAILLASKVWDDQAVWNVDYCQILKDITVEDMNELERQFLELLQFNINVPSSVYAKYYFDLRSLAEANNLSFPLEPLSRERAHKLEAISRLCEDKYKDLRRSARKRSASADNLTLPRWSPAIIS
UniProt Q6P1N0: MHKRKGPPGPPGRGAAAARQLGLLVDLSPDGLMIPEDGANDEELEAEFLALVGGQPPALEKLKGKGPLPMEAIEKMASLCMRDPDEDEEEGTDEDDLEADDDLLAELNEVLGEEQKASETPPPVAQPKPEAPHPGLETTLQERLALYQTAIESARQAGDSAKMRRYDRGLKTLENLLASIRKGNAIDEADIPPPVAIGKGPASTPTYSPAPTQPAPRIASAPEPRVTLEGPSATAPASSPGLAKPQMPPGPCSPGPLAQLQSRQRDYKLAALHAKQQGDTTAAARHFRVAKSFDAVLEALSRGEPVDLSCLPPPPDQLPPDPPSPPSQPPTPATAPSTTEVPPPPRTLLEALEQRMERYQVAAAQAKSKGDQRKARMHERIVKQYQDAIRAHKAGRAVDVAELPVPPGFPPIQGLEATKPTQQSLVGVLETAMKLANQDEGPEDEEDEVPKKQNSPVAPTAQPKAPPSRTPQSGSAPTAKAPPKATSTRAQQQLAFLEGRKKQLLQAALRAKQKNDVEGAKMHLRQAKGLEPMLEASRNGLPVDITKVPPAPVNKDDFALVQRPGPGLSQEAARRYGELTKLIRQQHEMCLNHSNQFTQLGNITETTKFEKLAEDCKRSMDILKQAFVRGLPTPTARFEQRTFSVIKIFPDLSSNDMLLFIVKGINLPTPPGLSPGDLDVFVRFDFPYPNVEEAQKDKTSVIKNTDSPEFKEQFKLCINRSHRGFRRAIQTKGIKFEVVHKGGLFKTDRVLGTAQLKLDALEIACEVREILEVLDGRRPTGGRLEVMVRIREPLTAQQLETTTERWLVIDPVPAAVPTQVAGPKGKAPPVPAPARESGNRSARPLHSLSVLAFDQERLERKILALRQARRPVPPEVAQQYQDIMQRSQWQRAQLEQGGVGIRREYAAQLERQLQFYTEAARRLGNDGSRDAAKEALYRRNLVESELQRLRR
UniProt Q5T0F9: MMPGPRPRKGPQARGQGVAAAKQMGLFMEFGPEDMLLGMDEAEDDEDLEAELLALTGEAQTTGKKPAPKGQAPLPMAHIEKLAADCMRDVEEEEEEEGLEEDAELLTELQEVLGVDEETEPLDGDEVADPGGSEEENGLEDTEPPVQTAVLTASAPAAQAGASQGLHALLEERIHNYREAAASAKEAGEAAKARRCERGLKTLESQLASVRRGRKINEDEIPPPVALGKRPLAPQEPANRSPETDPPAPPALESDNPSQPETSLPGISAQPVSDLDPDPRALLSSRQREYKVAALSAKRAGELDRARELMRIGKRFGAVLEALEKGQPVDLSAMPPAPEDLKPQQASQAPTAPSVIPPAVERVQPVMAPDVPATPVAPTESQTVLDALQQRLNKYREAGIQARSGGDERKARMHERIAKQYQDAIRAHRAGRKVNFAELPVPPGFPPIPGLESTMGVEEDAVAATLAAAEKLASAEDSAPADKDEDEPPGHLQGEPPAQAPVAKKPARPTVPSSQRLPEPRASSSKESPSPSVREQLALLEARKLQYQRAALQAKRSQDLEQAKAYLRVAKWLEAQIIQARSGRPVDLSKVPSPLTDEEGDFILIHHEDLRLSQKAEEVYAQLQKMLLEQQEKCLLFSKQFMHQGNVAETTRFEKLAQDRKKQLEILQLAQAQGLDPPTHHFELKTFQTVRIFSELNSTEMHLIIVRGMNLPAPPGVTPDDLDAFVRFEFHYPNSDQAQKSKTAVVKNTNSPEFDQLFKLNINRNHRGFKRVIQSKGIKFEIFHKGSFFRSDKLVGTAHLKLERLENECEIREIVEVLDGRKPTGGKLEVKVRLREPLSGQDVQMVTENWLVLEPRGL
UniProt O15446, whole entry, looked up: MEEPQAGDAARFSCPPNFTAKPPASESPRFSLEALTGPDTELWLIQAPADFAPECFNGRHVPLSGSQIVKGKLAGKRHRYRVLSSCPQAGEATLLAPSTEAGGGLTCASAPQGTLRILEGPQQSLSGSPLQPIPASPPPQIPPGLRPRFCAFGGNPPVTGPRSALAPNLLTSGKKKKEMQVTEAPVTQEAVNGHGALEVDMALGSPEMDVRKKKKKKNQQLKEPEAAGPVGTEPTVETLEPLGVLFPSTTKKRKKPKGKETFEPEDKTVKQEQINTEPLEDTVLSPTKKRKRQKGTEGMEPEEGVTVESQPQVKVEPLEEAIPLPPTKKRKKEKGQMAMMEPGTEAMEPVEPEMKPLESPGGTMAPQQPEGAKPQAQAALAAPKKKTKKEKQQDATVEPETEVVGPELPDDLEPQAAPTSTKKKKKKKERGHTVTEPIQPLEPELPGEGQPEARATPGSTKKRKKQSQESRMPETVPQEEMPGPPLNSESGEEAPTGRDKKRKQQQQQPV
UniProt A6NHX0: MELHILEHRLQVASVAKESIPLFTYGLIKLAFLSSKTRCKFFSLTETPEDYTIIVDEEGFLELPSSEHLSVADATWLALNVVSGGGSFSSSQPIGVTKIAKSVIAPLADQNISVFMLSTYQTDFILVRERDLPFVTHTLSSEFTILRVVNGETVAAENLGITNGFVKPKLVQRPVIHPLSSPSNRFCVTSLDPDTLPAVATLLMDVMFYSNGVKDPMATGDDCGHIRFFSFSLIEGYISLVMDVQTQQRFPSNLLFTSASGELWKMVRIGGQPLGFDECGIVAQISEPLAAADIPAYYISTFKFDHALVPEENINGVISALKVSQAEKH

Assays:
Test in all cases: log2 fold change, soluble protein after heating vs DMSO (PISA); higher = thermal stabilisation; K562 lysate, 10 uM; active = over 0.2 and 3.5 SD of the protein, either way, in both replicates (recomputed)
[1] = compound: C#Cc1cccc(Nc2ncnc3cc(OCCOC)c(OCCOC)cc23)c1 [erlotinib]
Outline: (§1)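 To prepare the extract, K562 pellets were dounce-homogenised in PBS pH 7.4 with 1 mM MgCl2, giving crude material at 1 mg/mL protein. This was treated with 10 μM compound for 30 min, then heated in aliquots for 3 min over 48°C-58°C before pooling and addition of NP-40 to 0.5% at 4°C. Centrifugation at 21,000xg for 90 min left soluble protein in the supernatant, which TMTpro 16plex LC-MS/MS quantified with equalised channel sums. Results are log-two fold changes in thermal stability compared with solvent controls, from duplicates.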

[2] = compound: C/C(=N\NC(=O)C1=CC(=CC=C1)S(=O)(=O)N2CCOCC2)/C3=C(C=CC(=C3)Cl)O
Outline: as §1

[3] = compound: C1=CC(=CC=C1C2=NC3=C(N2)C=C(C=C3)C(=O)N)OC4=CC=C(C=C4)Cl
Outline: as §1

[4] = compound: C1=CC2=C(C=CC(=C2)/C=C\3/C(=O)NC(=NCC4=CC=CS4)S3)N=C1
Outline: as §1

[5] = compound: C1=CC2=NC=CN=C2C=C1/C=C/3\C(=O)NC(=O)S3
Outline: as §1

[6] = compound: C1=CC=C(C=C1)C2=NC(=C(N2)C3=CC=NC=C3)C4=CC(=C(C=C4)Cl)O
Outline: as §1

[7] = compound: C1=CC=C2C(=C1)C3=NNC4=CC=CC(=C43)C2=O
Outline: as §1

[8] = compound: C1CCN(C1)C(=O)NC2=CC=CC(=C2)NC3=NC=C(C(=N3)NCCC4=CN=CN4)Br
Outline: as §1

[9] = compound: C1CN(CCC1(CC2=CC=C(C=C2)Cl)N)C3=NC=NC4=C3C=CN4
Outline: as §1

[10] = compound: C1COCCN1CCN2C3=CC=CC=C3N=C2NC(=O)C4=CC(=CC=C4)[N+](=O)[O-] [IRAK-1-4 Inhibitor I]
Outline: as §1

[11] = compound: C=CC(=O)N1CCC[C@@H](n2nc(-c3ccc(Oc4ccccc4)cc3)c3c(N)ncnc32)C1 [ibrutinib]
Outline: as §1

[12] = compound: CC(=O)c1cnc2ccc(-c3cc(Cl)c(O)c(Cl)c3)nc2c1N[C@H]1CC[C@H](CN(C)C)CC1
Outline: as §1

[13] = compound: CC(C)(C)Cn1c(N)nc2ccc(-c3[nH]c(C(C)(C)C)nc3-c3ccc(F)cc3)nc21 [ralimetinib]
Outline: as §1

[14] = compound: CC(C)(O)CC(=O)NCCn1ccc2ncnc(Nc3ccc(Oc4cccc(C(F)(F)F)c4)c(Cl)c3)c21
Outline: as §1

[15] = compound: CC(C)C1=C2N=C(C=C(N2N=C1)NCC3=CC=CC=C3)NCCCCCCN
Outline: as §1

[16] = compound: CC1=C(C(CC(=O)N1)C2=CC=C(C=C2)C(F)(F)F)C(=O)NC3=C(C=C4C(=C3)C=NN4)F
Outline: as §1

[17] = compound: CC1=C(C2=C(C=C1)C(=O)C3=CC=CC=C3N2CCCN)C
Outline: as §1

[18] = compound: CC1=C(C=C(C=C1)NC(=O)C2=CC(=CC=C2)C(C)(C)C#N)NC3=CC4=C(C=C3)N=CN(C4=O)C
Outline: as §1

[19] = compound: CC1=C(C=C(C=C1)NC(=O)C2=CC(=CC=C2)N(C)C)NC(=O)C3=CC=C(C=C3)O
Outline: as §1

[20] = compound: CC1=CC=C(C=C1)SC2=C3C=C(SC3=CN=C2)C(=O)N
Outline: as §1

Target	log2 fold change [1]	log2 fold change [2]	log2 fold change [3]	log2 fold change [4]	log2 fold change [5]	log2 fold change [6]	log2 fold change [7]	log2 fold change [8]	log2 fold change [9]	log2 fold change [10]	log2 fold change [11]	log2 fold change [12]	log2 fold change [13]	log2 fold change [14]	log2 fold change [15]	log2 fold change [16]	log2 fold change [17]	log2 fold change [18]	log2 fold change [19]	log2 fold change [20]
CD59 isoform 2 (UniProt P13987)	inactive: 0.04	inactive: -0.001	inactive: 0.004	inactive: 0.03	inactive: -0.038	inactive: 0.008	inactive: -0.024	inactive: 0.022	inactive: 0.035	inactive: 0.035	inactive: -0.03	inactive: -0.004	inactive: -0.008	inactive: -0.019	inactive: -0.009	inactive: 0.019	inactive: 0.054	inactive: -0.093	inactive: -0.043	inactive: -0.007
CBFB isoform 2 (UniProt Q13951)	inactive: -0.045	inactive: 0.031	inactive: -0.033	inactive: 0	inactive: 0.023	inactive: -0.007	inactive: -0.022	inactive: 0.03	inactive: 0	inactive: 0.002	inactive: 0.018	inactive: 0.022	inactive: 0.011	inactive: 0	inactive: -0.05	inactive: -0.012	inactive: 0.074	inactive: -0.017	inactive: 0.039	inactive: 0.014
CCNB2 (UniProt O95067)	inactive: 0.037	inactive: 0.038	inactive: 0.075	inactive: -0.061	inactive: -0.008	inactive: 0.008	inactive: -0.125	inactive: -0.02	inactive: 0.027	inactive: 0.033	inactive: -0.062	active: 0.358	inactive: 0.028	inactive: -0.028	inactive: 0.023	inactive: -0.011	inactive: 0.017	inactive: 0.022	inactive: 0.037	inactive: -0.079
CCNL2 (UniProt Q96S94)	inactive: -0.002	inactive: -0.049	inactive: -0.006	inactive: -0.042	inactive: 0.069	inactive: 0.037	inactive: -0.121	inactive: 0.055	inactive: -0.07	inactive: 0.01	inactive: 0.034	inactive: 0.008	inactive: -0.042	inactive: -0.046	inactive: 0.059	inactive: -0.016	inactive: -0.047	inactive: -0.028	inactive: 0.015	inactive: -0.024
CD81 (UniProt P60033)	inactive: 0.005	inactive: -0.061	inactive: 0.022	inactive: 0.042	inactive: 0.051	inactive: -0.031	inactive: -0.106	inactive: 0.002	inactive: 0.093	inactive: -0.017	inactive: -0.065	inactive: -0.02	inactive: -0.065	inactive: -0.056	inactive: -0.031	inactive: 0.004	inactive: -0.001	inactive: -0.026	inactive: 0.034	inactive: -0.077
CCM2 isoform 2 (UniProt Q9BSQ5)	inactive: -0.002	inactive: -0.163	inactive: -0.04	inactive: -0.03	inactive: -0.029	inactive: -0.054	inactive: -0.055	inactive: 0	inactive: 0.012	inactive: 0.042	inactive: 0.078	inactive: 0.099	inactive: -0.067	inactive: 0.008	inactive: 0	inactive: 0.019	inactive: -0.014	inactive: 0.061	inactive: 0.036	inactive: -0.003
CCT4 (UniProt P50991)	inactive: -0.015	inactive: -0.038	inactive: -0.002	inactive: -0.01	inactive: -0.007	inactive: -0.008	inactive: 0.05	inactive: 0.013	inactive: -0.038	inactive: -0.015	inactive: 0.005	inactive: 0.015	inactive: 0.01	inactive: 0.019	inactive: -0.028	inactive: 0.002	inactive: -0.01	inactive: -0.012	inactive: -0.017	inactive: 0.018
CCDC6 (UniProt Q16204)	inactive: -0.008	inactive: -0.001	inactive: 0.045	inactive: -0.007	inactive: -0.03	inactive: -0.007	inactive: 0.018	inactive: -0.009	inactive: -0.026	inactive: -0.017	inactive: 0.033	inactive: 0.005	inactive: 0.007	inactive: 0.006	inactive: 0.013	inactive: -0.002	inactive: 0.005	inactive: 0.031	inactive: -0.007	inactive: -0.011
CCDC174 (UniProt Q6PII3)	inactive: -0.009	inactive: -0.001	inactive: -0.008	inactive: 0.01	inactive: -0.014	inactive: -0.015	inactive: 0.016	inactive: -0.061	inactive: -0.017	inactive: 0.001	inactive: 0.048	inactive: 0.002	inactive: -0.006	inactive: 0.027	inactive: -0.033	inactive: 0.045	inactive: -0.009	inactive: 0.078	inactive: -0.013	inactive: -0.016
CCSMST1 (UniProt Q4G0I0)	inactive: 0.08	inactive: -0.092	inactive: 0.124	inactive: 0.002	inactive: -0.023	inactive: -0.017	inactive: 0.027	inactive: 0.035	inactive: 0.074	inactive: 0.041	inactive: 0.16	inactive: 0.018	inactive: -0.024	inactive: -0.078	inactive: -0.081	inactive: -0.002	inactive: 0.067	inactive: 0.017	inactive: 0.012	inactive: -0.158
CBX1 (UniProt P83916)	inactive: -0.012	inactive: -0.158	inactive: -0.012	inactive: -0.006	inactive: 0.03	inactive: -0.017	inactive: 0.017	inactive: 0.008	inactive: 0.03	inactive: 0.029	inactive: -0.002	inactive: 0.021	inactive: -0.006	inactive: -0.023	inactive: -0.039	inactive: -0.033	inactive: -0.024	inactive: 0.007	inactive: -0.003	inactive: -0.046
CCNY (UniProt Q8ND76)	inactive: -0.082	inactive: -0.033	inactive: 0.041	inactive: -0.037	inactive: 0.052	inactive: 0	inactive: 0.168	inactive: -0.016	inactive: -0.032	inactive: 0.063	inactive: 0	inactive: -0.013	inactive: -0.046	inactive: -0.099	inactive: 0.014	inactive: -0.036	inactive: 0.023	inactive: 0.063	inactive: 0.078	inactive: 0.001
CC2D1A (UniProt Q6P1N0)	inactive: -0.017	inactive: 0.247	inactive: -0.002	inactive: 0	inactive: -0.04	inactive: -0.01	inactive: -0.016	inactive: -0.038	inactive: 0.028	inactive: -0.012	inactive: 0.022	inactive: 0.01	inactive: 0.034	inactive: -0.007	inactive: 0.019	inactive: 0.013	inactive: 0.005	inactive: 0.024	inactive: 0.013	inactive: -0.037
CC2D1B isoform 2 (UniProt Q5T0F9)	inactive: -0.013	inactive: 0.021	inactive: 0.019	inactive: 0.02	inactive: -0.032	inactive: 0.009	inactive: -0.024	inactive: -0.023	inactive: 0.023	inactive: -0.012	inactive: 0.044	inactive: -0.02	inactive: 0.021	inactive: 0.002	inactive: 0.029	inactive: 0.029	inactive: -0.046	inactive: 0.042	inactive: 0.014	inactive: -0.021
CD3EAP isoform 2 (UniProt O15446)	inactive: 0.001	inactive: -0.038	inactive: 0.068	inactive: -0.001	inactive: 0.007	inactive: 0.001	inactive: -0.017	inactive: 0.005	inactive: -0.005	inactive: 0.036	inactive: -0.006	inactive: -0.011	inactive: 0.022	inactive: -0.062	inactive: -0.02	inactive: -0.006	inactive: -0.034	inactive: 0.004	inactive: 0.021	inactive: 0.001
CASTOR2 (UniProt A6NHX0)	inactive: -0.015	inactive: -0.258	inactive: -0.037	inactive: -0.023	inactive: 0.029	inactive: 0.033	inactive: 0.045	inactive: -0.064	inactive: 0.011	inactive: 0.022	inactive: -0.03	inactive: 0.028	inactive: 0.008	inactive: 0.051	inactive: -0.025	inactive: -0.037	inactive: 0.015	inactive: -0.024	inactive: 0.015	inactive: -0.011

An excerpt of these results, comma-delimited:
Target,log2 fold change [1],log2 fold change [2],log2 fold change [3],log2 fold change [4],log2 fold change [5],log2 fold change [6],log2 fold change [7],log2 fold change [8],log2 fold change [9],log2 fold change [10],log2 fold change [11],log2 fold change [12],log2 fold change [13],log2 fold change [14],log2 fold change [15],log2 fold change [16],log2 fold change [17],log2 fold change [18],log2 fold change [19],log2 fold change [20]
CBX1 (UniProt P83916),inactive: -0.012,inactive: -0.158,inactive: -0.012,inactive: -0.006,inactive: 0.03,inactive: -0.017,inactive: 0.017,inactive: 0.008,inactive: 0.03,inactive: 0.029,inactive: -0.002,inactive: 0.021,inactive: -0.006,inactive: -0.023,inactive: -0.039,inactive: -0.033,inactive: -0.024,inactive: 0.007,inactive: -0.003,inactive: -0.046
CASTOR2 (UniProt A6NHX0),inactive: -0.015,inactive: -0.258,inactive: -0.037,inactive: -0.023,inactive: 0.029,inactive: 0.033,inactive: 0.045,inactive: -0.064,inactive: 0.011,inactive: 0.022,inactive: -0.03,inactive: 0.028,inactive: 0.008,inactive: 0.051,inactive: -0.025,inactive: -0.037,inactive: 0.015,inactive: -0.024,inactive: 0.015,inactive: -0.011
